From patent US20220186223, “T-LYMPHOCYTE BINDING APTAMERS” (Aummune Ltd., published 2022) come the findings set out here.

Amino acid sequences for entries named in this document (tags omitted). A change or cut given only in a name is not applied to a line headed by its entry.
UniProt P07766: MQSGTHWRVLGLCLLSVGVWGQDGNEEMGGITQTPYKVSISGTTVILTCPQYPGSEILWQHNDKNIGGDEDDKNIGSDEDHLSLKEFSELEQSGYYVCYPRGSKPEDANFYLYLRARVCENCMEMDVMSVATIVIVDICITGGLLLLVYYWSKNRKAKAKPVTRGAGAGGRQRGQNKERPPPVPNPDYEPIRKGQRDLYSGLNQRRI

Series [1] deals with CD3 epsilon (native CD3/TCR complex on Jurkat T cells) (Homo sapiens) (UniProt P07766). Briefly: flow cytometry. Particulars: synthesized with 5' CpG motif having 5 PS linkages (extension not in ref), Jurkat at 4 C and 37 C, protein on the cell surface, label: Cy5 via hybridised CpG'-Cy5 complementary strand, single-stranded DNA. For orientation: Flow cytometry measures light scatter and fluorescence of single cells or particles in a stream.

The subject of series [2] is Human IgG1 isotype control (Homo sapiens). The series can be described thus: binding assay. The following applies: HPLC size exclusion, negative control protein, binding to CD3e described as specific, purified recombinant protein, protein details: InVivoMAb BE0297, label: Cy5 via hybridised CpG'-Cy5 complementary strand, single-stranded DNA. A general note: In gel filtration, larger molecules generally elute earlier.

In series [3] the target is CD3 epsilon (native CD3/TCR complex on primary Pan T cells) (Homo sapiens) (UniProt P07766). The series can be described thus: flow cytometry. The following applies: PS at first 5 linkages of 5' CpG motif; primary Pan T cells at 37 C under blocking conditions; no binding to Pan B cells; protein on the cell surface; label: Cy5 via hybridised CpG'-Cy5 complementary strand; single-stranded DNA.

For part of these data: Where cells or extracts were used, other partners may take part. For part of these data: Construct, isoform or probe ends are uncertain for at least one entry. For part of these data: Negatives hold for the conditions tested.

As to “CATTTCATAGGGCTGCTTAGGATTGCGAAGGTAATGCCAG [CS7]”, the binding result in series [1] (differential versus Kasumi-1 and Daudi controls, lower than CS6 at 37 C) is on record as “binds”; in series [2] (synthesized with 5' CpG motif having 5 PS linkages (extension not in ref)), “no binding”.
As for “CTTTTAGGTCTGCTTAGGATTGCGAAAAAAG [CS8c (CS8cut)]”, the binding result in series [1] (less specific than CS6 and CS7, variant of CS8) is “binds”; in series [2] (synthesized with 5' CpG motif having 5 PS linkages (extension not in ref), variant of CS8), “no binding”.
Consider “TCGTCGTCGCGGTTCGCGTCCGTATCGTATAAGGGCTGCTTAGGATTGCGATAATACGGTCAA [CS6 (5PS-CpG-CS6)]”, for which the binding result in series [3] is recorded as “binds”; in series [2] (PS at first 5 linkages of 5' CpG motif) it was “no binding”.
